Test results reported in paper doi:10.1101/313494.

Experiments:
Test in all cases: co-IP
[1] = target: T1, SAS-6-EGFP (Drosophila SAS-6 expressed in D.Mel cells) (Drosophila) (UniProt Q9VAC8)
T1 sequence: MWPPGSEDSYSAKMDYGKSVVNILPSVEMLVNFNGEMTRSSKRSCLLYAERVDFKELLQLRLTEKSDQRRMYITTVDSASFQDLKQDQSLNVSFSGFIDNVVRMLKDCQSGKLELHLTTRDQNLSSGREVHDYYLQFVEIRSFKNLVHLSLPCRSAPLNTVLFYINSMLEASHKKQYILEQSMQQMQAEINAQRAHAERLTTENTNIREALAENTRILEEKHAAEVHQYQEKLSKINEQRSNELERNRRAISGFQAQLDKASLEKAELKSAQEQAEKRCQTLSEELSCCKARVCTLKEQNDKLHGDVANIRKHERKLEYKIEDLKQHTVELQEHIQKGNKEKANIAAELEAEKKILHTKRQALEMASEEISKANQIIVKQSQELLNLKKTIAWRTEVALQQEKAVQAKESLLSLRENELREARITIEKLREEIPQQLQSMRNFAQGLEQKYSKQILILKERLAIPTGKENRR

[2] = target: T2, SAS-6-GFP (Drosophila SAS-6 expressed in fission yeast) (Drosophila) (UniProt Q9VAC8)
T2 sequence: T1 sequence

[3] = target: Bld10-GFP (Drosophila Bld10/CEP135 expressed in fission yeast) (Drosophila)

binding [1]: binds
Molecule: HA-tagged PLP fragment containing the conserved PACT domain (Drosophila) (domain or fragment)

binding [2]: binds
Molecule: mCherry-tagged Pcp1 truncation C (C-terminal region containing the conserved PACT domain) (S. pombe) (domain or fragment)

binding [3]: binds
B1: HA-tagged Pcp1 (fission yeast pericentrin orthologue) (protein, UniProt Q92351 1-1208)
chain: MSERDFNTQSPKFKDENANSVISQSDFLGKSLKNNNDDYSDFRGSYLNDKSSFQTPLRNGSYQPKGSLEFTPLLQSSNKNSDKYNGSLGDKGSFDPNSYGLSAISKQATQEALSISQGNDSYDVSKLTDLSKNSEIDHTDGELPANAALTLREQEKVLEKVSRENFGLRIKIVCLEKRLESMAPEQIKEAVKDNVELHAERANLQLQLKRTESLLQKSEDKNFKLEEKVDYLSKVNDVEQSQNVKVFTERIRFLENALEKVQREKDSLSTEMEEDKSNKEVDYEYEIRQLQNRLDELSEELDVAQDLLTEKEDEIATLKRQIEEKENSSSAFENEENSSYVHLQEDYAILQAKCDEFADRIQVLTADLEKEKENQIMHESEASIGLTDSMQVHTLQEQLHKANEEIEFLHDQISRMNEEGKNFEDIMLQFRSLEEERDVLESKLQTLEDDNNSLRLMTSSLGNQIESLRTQNREIDEEKNHLRLLASKNSDKALAETNIRLQEVTKELETLRMKNSNDLNEIHDLREENEGLTLKIDSITKEKDRLINELEQRIKSYEVNVSELNGTIDEYRNKLKDKEETYNEVMNAFQYKDNDLRRFHESINKLQDREKELTSNLEKKNLVISSLRETVAMLEKERESIKKYLSGNAKDLDNTNLMEILNDKISVLQRQLTDVKDELDVSEEEREEAIVAGQKLSASFELMSNEKQALELKYSSLKNELINAQNLLDRREEELSELSKKLFEERKIRSGSNDDIEKNKEINVLNSELADKLAQIRHLESDKMELDKLVHHLNRGIEEANIEENAVKKRLCLLMGCDYSSVSILQIVSQIEHFVNQQIQTIRSLKQELRHDFVQFSGKKEQELSRSFEKFGLGTETKHDILAQRNRNVSEKMNDLENAAQKFFSSPDRKNGYLYPSEHTSKIEYLEKTIEDLKLALQDELKNRNLLMDDISSYNKQTTKLQEKIKWLERERSILIDELESYRSNQFNYQNNLVQDKNELEERLKEIQKELEVYNNHFMKQAELMTSNVTDESQLMLKTLREALQSKTNNIDHLSTILERNRKEYKSLLDDYNQLRARYKNLQSNTPQSTQSGQYESEIKGLSKLTKYLQSKCRREHSLRLDLAFSKKFILMQLTGYETCNKINLRMLQKIGISPDPDLSKKHIKLKSLIIVVCSIERMKRMKNEWLKQAQLKQSLQRAAAKAKTANY

No constants are given. Whether binding was seen depends on the method and setting. Binding seen in cells or lysates may run through a third protein. Binding calls can cover weak binding; strength is not graded here. Tags and fused reporters may be left off the sequences shown. Each block holds one molecule with its values, some of them ahead of it.
